{"source": "patent US20040175714A1", "binders": {"B1": {"name": "KG-20 protein (product of human protooncogene KG-20), as activation-domain fusion clone from a human fetal brain library (protein, not shown: large carriers)", "chain": "MTLDNINLAAVDRIIRVDHAGEYGANRIYAGQMAVLGRTSVGPVIQKMWDQEKDHLKKFNELMVMFRVRPTVLMPLWNVLGFALGAGTALLGKEGAMACTVAVEESIAHHYNNQIRTLMEEDPEKYEELLQLIKKFRDEELEHHDIGLDHDAELAPAYAVLKSIIQAGCRVAIYLSERL"}}, "key": {"[1]": {"biological_target": "T1, human protooncogene KG-19 protein product, as LexA fusion (bait) (human) (UniProt Q8WY22)", "T1 sequence (looked up)": "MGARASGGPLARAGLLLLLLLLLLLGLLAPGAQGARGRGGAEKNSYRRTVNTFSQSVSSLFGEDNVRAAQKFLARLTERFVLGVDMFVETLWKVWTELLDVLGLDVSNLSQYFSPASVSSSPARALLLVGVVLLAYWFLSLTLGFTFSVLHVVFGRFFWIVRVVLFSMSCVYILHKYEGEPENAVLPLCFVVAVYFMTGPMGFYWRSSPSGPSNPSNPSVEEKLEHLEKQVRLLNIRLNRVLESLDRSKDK", "assay": "yeast two-hybrid screen"}, "[2]": {"biological_target": "T1, human protooncogene KG-19 protein product, as LexA fusion (bait) (human)", "assay": "yeast two-hybrid (LexA system), colony lifting assay, lacZ reporter on X-gal; KG-19 as LexA bait, KG-20 clone from AD fusion library"}}, "note": "These are yes or no findings as the source states them, for the method shown. Some binding calls cover weakened binding; strength is not graded here. Sequences can lack the tags named with a protein."}
{"binder": "B1", "values": [{"measurement": "binding", "setting": "[1]", "result": "binds"}, {"measurement": "binding", "setting": "[2]", "result": "binds"}]}
